Assay results from patent publication US10647598B2, “Antimicrobial and algicidal agent for cooling water system” (KURITA WATER INDUSTRIES LTD., priority 2013, dated 2020).
Some of these results come from one statement about several compounds together.

Tested on: algae A to C
Assay: Test tube algicidal test, overall assessment
Type: cell-based
Conditions: Table 1, algae A to C, 3 days
Procedure: A test water system containing algae was prepared as described below.
Secondary treated water obtained by filtrating sewage using a filter having a pore diameter of 0.1 μm was received in a beaker having a volume of 1 L, and to this secondary treated water, 1 g of algae sampled from each of cooling towers A, B, and C in which an antimicrobial treatment was performed using a chlorosulfamic acid was added. Algae A sampled from the cooling tower A were diatoms and contained green algae. Algae B sampled from the cooling tower B were primarily formed of green algae and contained blue-green algae and diatoms. […]
In Examples 1 to 5 and Comparative Examples 8 to 11 and 13 to 16, a chlorosulfamic acid (abbreviated as “CSA”, and the addition amount represents the residual chlorine concentration) and one of 5-chloro-2-methyl-4-isothiazolone-3-one (abbreviated as “MIT”), 2,2-dibromo-3-nitrilopropion amide (abbreviated as “DBNPA”), and 2-bromo-2-nitro-1,3-propanediol (abbreviated as “BNP) were added to each test tube so as to have predetermined concentrations shown in Table 1. […] Subsequently, after the test tubes were left for 3 days at a north-side window so as not to be exposed to direct sunlight, the conditions of the algae were observed by visual inspection and evaluated in accordance with the following criteria. […]

SMILES | Algicidal effect, assessment in words
N#CC(Br)(Br)C(N)=O [Comparative Example 7, 2,2-dibromo-3-nitrilopropion amide] | a sufficient effect cannot be obtained
O=[N+]([O-])C(Br)(CO)CO [Comparative Example 12, 2-bromo-2-nitro-1,3-propanediol] | a sufficient effect cannot be obtained
